Experimental data from PubChem BioAssay AID445 (National Center for Advancing Translational Sciences (NCATS), 2006).
Some of the results follow. Shown are side measurements of this screen, not its main read-out; they come without a call. The list favours compounds with an active or inconclusive main result. Potencies come from curve fits of mixed quality, noted in brackets.

Assay: IkB Signaling
Conditions: ABC-DLBCL IkBa-CBG/CBR dual luciferase ratio (green luciferase fused to IkBa over red control in OCI-Ly3 lymphoma cells), 4 h; measured here: control luc red channel unless noted
Procedure, shortened: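 In this assay, an IκBα–CBG68 fusion accumulates when IKK-driven degradation is blocked; native CBR normalizes for cell number. OCI-Ly3 cells were treated 4 h with compound and doxycycline, then green and red light read after Chroma-Glo addition.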

SMILES	AC50
O=C(CNS(=O)(=O)c1ccc(Br)s1)NCC1COc2ccccc2O1 (configuration not stated)	25.1 µM [falling, partial curve]
COc1cccc(NC(=O)CSc2nc(=O)n(Cc3cccnc3)c3c2CCC3)c1	10 µM [falling, partial curve]
Cc1ccc2nc3c(cc(C#N)c(=O)n3-c3nnc(SCc4ccc(F)cc4)s3)c(=O)n2c1	39.8 µM [rising, single point]
COc1ccc(OCC(=O)Nc2ccc(-c3nc4cc(Cl)ccc4o3)cc2)cc1	10 µM [rising, partial curve, poor fit]
CCCN(CCC)C(=O)Cn1c(=O)n(-c2ccc(OC)cc2OC)c(=O)c2c3c(sc21)CCC3	39.8 µM [falling, single point]
Cc1ccc(Sc2ccc(N3CCCC(C(=O)Nc4ccc(F)c(Cl)c4)C3)nn2)cc1 (configuration not stated)	5.01 µM [falling, full curve]
Cc1c(C(=O)NCc2ccccn2)sc2nc(-c3ccccc3)cn12	10 µM [falling, partial curve] [measured here: IkB-luc green channel]
NC(=O)c1nc(Nc2ccccc2)sc1NC(=O)c1c(F)cccc1F	0.398 µM [falling, full curve, poor fit]
CS(=O)(=O)N(Cc1ccccc1)c1ccc(C(=O)NC2CCCCC2O)cc1 (configuration not stated)	7.94 µM [falling, partial curve]
CCOC(=O)c1ccc(NC(=O)c2c(NCc3sccc3C)sc3c2CCC(C)C3)cc1 (configuration not stated)	12.6 µM [falling, partial curve]
CN1CCN(C(CNC(=O)C(=O)Nc2ccc(Cl)cc2)c2cccnc2)CC1 (configuration not stated)	15.8 µM [falling, partial curve]
Cc1ccc(C)c(N2CCN(C(=O)CCc3nnc4n(C)c(=O)c5ccccc5n34)CC2)c1	20 µM [falling, partial curve]
CCOCCCNC(=O)c1c[nH]c2ccc(S(=O)(=O)N(C)c3ccc(Cl)cc3F)cc2c1=O	39.8 µM [falling, partial curve]
CCOC(=O)c1cccnc1SCC(=O)N(CC)c1cccc(C)c1	12.6 µM [falling, single point]
CC(C)Cn1nc(NC(=O)c2cccc(Cl)c2)c2cc3ccccc3nc21	0.794 µM [falling, full curve]
CCc1ccccc1NC(=O)c1oc(=O)c2ccccc2c1-c1ccccc1	25.1 µM [falling, single point]

At a glance, some entries already given:
SMILES	AC50
NC(=O)c1nc(Nc2ccccc2)sc1NC(=O)c1c(F)cccc1F	0.398 µM [falling, full curve, poor fit]
CS(=O)(=O)N(Cc1ccccc1)c1ccc(C(=O)NC2CCCCC2O)cc1 (configuration not stated)	7.94 µM [falling, partial curve]

Additional compounds.

SMILES	AC50
COc1ccc(Cl)cc1NC(=O)CSc1nc(=O)n(Cc2ccco2)c2c1CCC2	3.98 µM [falling, full curve]
Nc1ccc(O)cc1	12.6 µM [rising, full curve] [measured here: IkB-luc green channel]
CCOC(=O)c1ccccc1NC(=O)c1cn(CC(C)C)c(=O)c2cc(OC)c(OC)cc12	7.94 µM [falling, partial curve]
COc1ccc(OC)c(-c2noc(CSc3nnc(-c4ccccc4)n3-c3ccccc3)n2)c1	31.6 µM [falling, partial curve]
CC(C)=C(C#N)c1nc2ccccc2s1	0.501 µM [falling, full curve]
CC(C)c1ccc2c(c1)NC(c1ccc(F)cc1)=NC(c1cccs1)=N2	15.8 µM [falling, partial curve]
COc1cccc(N2CC(NC(=O)c3cc4ccccc4o3)CC2=O)c1 (configuration not stated)	6.31 µM [rising, single point]
Fc1ccc(-c2noc3ncnc(NCCc4ccc(Cl)cc4)c23)cc1	3.98 µM [falling, full curve]
COc1cccc(CNC(=O)N2CCc3c(sc4c3CCCC4)C2c2ccc(F)cc2)c1 (configuration not stated)	12.6 µM [falling, partial curve]
Cc1ccc(C)n1-c1ccc(N2CCOCC2)cc1	39.8 µM [rising, single point] [measured here: IkB-luc green channel]
Cc1cccc(C(=O)NCCc2nc3ccccc3n2Cc2ccccc2Cl)c1	5.01 µM [falling, partial curve]
COc1ccc(OC)c(C2C(C(=O)Nc3ccc(C)cc3C)=C(C)Nc3c(C(=O)Nc4ccc(F)cc4)cnn32)c1 (configuration not stated)	12.6 µM [falling, partial curve]
Cc1cc(=O)n(Cc2cccc(Cl)c2)c2c1c(C)nn2C	3.98 µM [rising, single point]
COC(=O)c1ccc(NC(=O)c2c(NCc3cccc(F)c3)sc3c2CCCC3)cc1	25.1 µM [falling, partial curve]
CCC(Oc1ccccc1F)C(=O)Nc1cc(-c2ccccc2)no1 (configuration not stated)	39.8 µM [falling, single point]
